These are yes or no findings as the source states them, for the method shown. Some entries that bind do so weakly or less than the wild type.
Assays:
[1] = target: His-tagged cynomolgus TIGIT (cynomolgus); assay: SPR, purified antibody captured
[2] = target: His-tagged cynomolgus TIGIT (cynomolgus); assay: SPR (BIAcore T200), antibody captured by goat anti-human pAb, His-tagged cynomolgus TIGIT injected in a dilution series

B1: huTIGIT-3-1 (antibody, human IgG1, kappa, V domains shown)
VH: EVQLVESGGGLVQPGGSLRLSCAASGFTFSSYGMSWVRQAPGKGLELVATIKSSGGSTNLADSVKGRFTISRDNSKNTLYLQMNSLRAEDTAVYYCVRGYFDYWGQGTTVTVSS
VL: DIQMTQSPSSLSASVGDRVTITCRASQDIKTALAWYQQKPGKSPKLLIYWASTRQSGVPSRFSGSGSGTDFTLTISSLQPEDVATYYCQQYYSTPYTFGGGTKVEIKR
binding [1]: binds | binding [2]: binds

B2: TIGIT-6 chimeric antibody (antibody, human IgG1, kappa, V domains shown)
VH: QVQLKQSGPELVKPGASVKISCKTSGYTITENTMHWVKQSHGKSLEWIGGINPNNGGTSYNQQFKGKATLTVDKSSSTAYMELRSLTSEDSAVYYCTRSSYYRYDLDYWGQGTTVTVSS
VL: DIQMTQSHKFMSTSVGDRVSITCKASQDVKTALAWYQQKPGQSPKLLIYSASYRYTGVPDRFTGSGSGTDFTFTISSVQAEDLAVYYCHQHYTTPWTFGGGTKLEIKR
binding [1]: binds | binding [2]: binds

B3: huTIGIT-6-1 (antibody, human IgG1, kappa, V domains shown)
VH: QVQLVQSGAEVKKPGASVKVSCKASGYTITENTMHWVRQAPGQRLEWIGGINPNQGGTSYSQKFQGRATLTVDTSASTAYMELSSLRSEDTAVYYCTRSSYYRYDLDYWGQGTTVTVSS
VL: DIQMTQSPSSLSASVGDRVTITCQASQDIKTALAWYQQKPGKAPKLLIYSASYRYTGVPSRFSGSGSGTDFTFTISSLQPEDIATYYCHQHYTTPWTFGGGTKLEIKR
binding [1]: binds | binding [2]: binds

B4: huTIGIT-6-2 (antibody, human IgG1, kappa, V domains shown)
VH: QVQLVQSGAEVKKPGASVKVSCKASGYTITENTMHWVRQAPGQRLEWIGGINPNNAGTSYSQKFQGRATLTVDTSASTAYMELSSLRSEDTAVYYCTRSSYYRYDLDYWGQGTTVTVSS
VL: DIQMTQSPSSLSASVGDRVTITCQASQDIKTALAWYQQKPGKAPKLLIYSASYRYTGVPSRFSGSGSGTDFTFTISSLQPEDIATYYCHQHYTTPWTFGGGTKLEIKR
binding [1]: binds | binding [2]: binds

B5: huTIGIT-6-3 (antibody, human IgG1, kappa, V domains shown)
VH: QVQLVQSGAEVKKPGASVKVSCKASGYTFTENAMHWVRQAPGQRLEWIGGINPNQGGTSYSQKFQGRATLTVDTSASTAYMELSSLRSEDTAVYYCTRSSYYRYDLDYWGQGTTVTVSS
VL: DIQMTQSPSSLSASVGDRVTITCQASQDIKTALAWYQQKPGKAPKLLIYSASYRYTGVPSRFSGSGSGTDFTFTISSLQPEDIATYYCHQHYTTPWTFGGGTKLEIKR
binding [1]: binds | binding [2]: binds

B6: huTIGIT-6-4 (antibody, human IgG1, kappa, V domains shown)
VH: QVQLVQSGAEVKKPGASVKVSCKASGYTFTENAMHWVRQAPGQRLEWIGGINPNNAGTSYSQKFQGRATLTVDTSASTAYMELSSLRSEDTAVYYCTRSSYYRYDLDYWGQGTTVTVSS
VL: DIQMTQSPSSLSASVGDRVTITCQASQDIKTALAWYQQKPGKAPKLLIYSASYRYTGVPSRFSGSGSGTDFTFTISSLQPEDIATYYCHQHYTTPWTFGGGTKLEIKR
binding [1]: binds | binding [2]: binds

B7: TIGIT-19 chimeric antibody (antibody, human IgG1, kappa, V domains shown)
VH: QVQLQQPGPELVKPGTSVMLSCKASGYAFSRYSMYWVKQSHGKSLEWIAFIDPYNGGSTYNQRFRGKATLTVDKSSSTAYMHLNTLTSDDSAVYYCARGGDYGWYLGVWGAGTTVTVSS
VL: DIQMTQSPASLSASVGETVTITCRPSENIYTYLSWYQQKRGKSPQLLVYNAKTLPENVPSRFSGSGSGTQFSLKIDSLQPEDFGNYYCQHHYGNPLTFGAGTKLELKR
binding [2]: binds

B8: huTIGIT-19-1 (antibody, human IgG1, kappa, V domains shown)
VH: QVQLVQSGAEVKKPGASVKVSCKASGYTFTRYSMYWVRQAPGQGLEWIAFIDAYSGGSTYNQRFRGKATLTVDTSISTAYMELSRLRSDDTAVYYCARGGDYGWYLGVWGQGTLVTVSS
VL: DIQMTQSPSSLSASVGDRVTITCRPSENIYTYLSWYQQKPGKAPKLLIYNAKSLPSGVPSRFSGSGSGTDFTLTISSLQPEDFATYYCQHHYGNPLTFGQGTKVEIKR
binding [2]: binds

B9: huTIGIT-19-2 (antibody, human IgG1, kappa, V domains shown)
VH: QVQLVQSGAEVKKPGASVKVSCKASGYTFTRYSMYWVRQAPGQGLEWIAFIDAYSGGSTYNQRFRGKATLTVDTSISTAYMELSRLRSDDTAVYYCARGGDYGWYLGVWGQGTLVTVSS
VL: DIQMTQSPSSLSASVGDRVTITCRASQSIYSYLSWYQQKPGKAPKLLIYNAKSLPSGVPSRFSGSGSGTDFTLTISSLQPEDFATYYCQHHYGNPLTFGQGTKVEIKR
binding [2]: binds

B10: huTIGIT-19-3 (antibody, human IgG1, kappa, V domains shown)
VH: QVQLVQSGAEVKKPGASVKVSCKASGYTFTRYSMYWVRQAPGQGLEWIAFIDAYSGGSTYAQKFQGKATLTVDTSISTAYMELSRLRSDDTAVYYCARGGDYGWYLGVWGQGTLVTVSS
VL: DIQMTQSPSSLSASVGDRVTITCRPSENIYTYLSWYQQKPGKAPKLLIYNAKSLPSGVPSRFSGSGSGTDFTLTISSLQPEDFATYYCQHHYGNPLTFGQGTKVEIKR
binding [2]: binds

B11: huTIGIT-19-4 (antibody, human IgG1, kappa, V domains shown)
VH: QVQLVQSGAEVKKPGASVKVSCKASGYTFTRYSMYWVRQAPGQGLEWIAFIDAYSGGSTYAQKFQGKATLTVDTSISTAYMELSRLRSDDTAVYYCARGGDYGWYLGVWGQGTLVTVSS
VL: DIQMTQSPSSLSASVGDRVTITCRASQSIYSYLSWYQQKPGKAPKLLIYNAKSLPSGVPSRFSGSGSGTDFTLTISSLQPEDFATYYCQHHYGNPLTFGQGTKVEIKR
binding [2]: binds
